Reference: patent publication US5047244A, “Mucoadhesive carrier for delivery of therapeutical agent” (priority 1988, dated 1991)

Experiment: In vitro therapeutic agent release (USP Dissolution Test Method II, 0.05M isotonic phosphate buffer pH 6.0 with 30 weight percent PEG 400)
Format: physicochemical
Settings: Example 11 carrier; for In vitro release of nifedipine: 10 mg nifedipine
Experimental: Therapeutic agent release studies were conducted using an Erweka dissolution test assembly in compliance with Dissolution Test Method II as described in The United States Pharmacopeia, 24th revision (USP XXIV). Five hundred milliliters of a 0.1M phosphate buffer dissolution fluid was maintained at about 37° C. (about 100° F.) and the […] was rotated at 50 revolutions per minute (rpm). At predetermined time points, samples of approximately 3 milliliters of the test medium were withdrawn from the flasks and immediately replaced with an equivalent volume of blank buffer. Analysis of the samples was performed by ultraviolet spectrophotometry. […] The time to achieve 20%, 50% and 80% by weight dissolution of the piroxicam was estimated from a linear plot of percent dissolved versus time.
Therapeutic agent release testing was conducted by the USP Dissolution Test Method II. The dissolution medium chosen was 500 ml of a 0.05M isotonic phosphate buffer having a 6.0 pH with 30 weight percent PEG 400.
An equivalent of 20 mg of albuterol in a mucosal composition of a albuterol:PEG 8000 weight in a ratio of 1:2 was included in each carrier. […] Plots of weight percent therapeutic agent released versus time were constructed and the drug release parameter T (in hours) for a given weight and percent drug released was calculated from the plots.

In vitro release of nifedipine (1 hour): 4 weight percent
In vitro release of nifedipine (2 hours): 6.5 weight percent
In vitro release of nifedipine (4 hours): 10.7 weight percent
In vitro release of nifedipine (8 hours): 21.0 weight percent
In vitro release of nifedipine (time not printed (between 4 and 8 hours)): 18.7 weight percent
Order of release (nifedipine): zero order therapeutic agent release
Structure (SMILES): COC(=O)C1=C(C)NC(C)=C(C(=O)OC)C1c1ccccc1[N+](=O)[O-] [nifedipine]
